# From PubChem BioAssay AID624297 (National Center for Advancing Translational Sciences (NCATS), 2012)
# In all, about 340,000 compounds went through this assay and about 6,200 (1.8%) were called active. Inconclusive results, whose numbers are uncertain, are shown with a selection of clear calls. Calls come from the whole dose curve; as a rule, active = well fitted activation curve with a large enough effect; inconclusive = small, poorly fitted or top-dose-only effect; inactive = no such curve, though single readings can be large or run the other way. A potency beside an inconclusive call is a rough fit, not a confirmed value.
# Assay: A quantitative high throughput screen for small molecules that induce DNA re-replication in SW480 colon adenocarcinoma cells. For re-replication activation: % of control where 0% means no effect. Note: nearly all actives have a fitted effect of over 55% in size.
# Settings: Hoechst DNA content imaging, 48 h; re-replication activation: at 46.1 µM (top of the series) unless noted
# Summary of the method: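 Readout is total intensity of Hoechst-stained nuclei, excited at 405 nm and collected at 500-530 nm. Compound treatment lasted 48 hr at 37 C in 5% CO2 before staining.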
# Potency is the fitted concentration of half-maximal effect.
SMILES,Potency,re-replication activation
CCOC(=O)C1=C(CSc2nc(-c3ccccc3)ccc2C#N)OC(N)=C(C#N)C1c1cccnc1 (stereo not drawn),"inconclusive: 11.6 µM [activator, partial curve, poor fit]",–
O=c1c2cc(NC(=S)NCCCN3CCC(Cc4ccccc4)CC3)ccc2nc2n1CCCCC2,"inconclusive: 29.1 µM [activator, single point]",–
Cc1oc2c(c1C(=O)Nc1cccc3ccccc13)CCCC2,"inconclusive: 23.1 µM [activator, single point]",–
CC(C)CC1Nc2ccc(C(=O)NCCCN3CCCCC3C)cc2NC1=O (stereo not drawn),"inconclusive: 20.6 µM [activator, single point]",–
Cc1ccc(S(=O)(=O)N2CCOCC2)cc1NC(=O)CN(C)C1CCS(=O)(=O)C1 (stereo not drawn),"inconclusive: 6.51 µM [activator, single point]",–
Cc1cc2nc(-c3ccc(SCc4ccccn4)nc3)[nH]c2cc1C,"inconclusive: 29.1 µM [activator, single point]",–
COc1ccc(-c2nnc(SCC(=O)Nc3c(Cl)cc(Cl)cc3C(=O)O)o2)cc1,–,inactive: -1.27%
Cc1cc(C)c2c(N)c(C(=O)N/N=C/c3ccccc3)sc2n1,active: 13 µM,–
CN1CCCC1CCNc1ccc2oc3ccccc3c(=O)c2c1 (stereo not drawn),–,inactive: -24% [at 9.22 µM]
CN(c1ccccc1C(=O)NCc1ccccc1Cl)S(=O)(=O)c1ccccc1,"inconclusive: 29.1 µM [activator, single point]",–
COc1cc2c(c(OC)c1OC)-c1ccc(SC)c(=O)cc1C(NC=O)CC2 (stereo not drawn),"inconclusive: 0.0065 µM [activator, full curve, poor fit]",–
O=C(NC1CCN(Cc2ccccc2)CC1)c1cccc(S(=O)(=O)Nc2ccc(SC(F)F)cc2)c1,"inconclusive: 16.4 µM [activator, single point]",–
CCN(CC)CCNC(=O)c1ccc(NC(=O)c2cccc(S(=O)(=O)N3CCCCCC3)c2)cc1,"inconclusive: 0.517 µM [activator, partial curve, poor fit]",–
CC(C)[C@@H]1CC[C@@H](C)C[C@H]1OC(=O)C[n+]1cc(-c2ccc(Cl)cc2)n2c1CCCCC2,"inconclusive: 14.6 µM [activator, single point]",–
c1cnc(-c2nnc3n2CCCCC3)cn1,"inconclusive: 29.1 µM [activator, single point]",–
CC(C)CCNC(=O)C(c1ccc(O)cc1)N(Cc1cccs1)C(=O)C1COc2ccccc2O1 (stereo not drawn),"inconclusive: 16.4 µM [activator, single point]",–
COc1ccc(C2N=C(c3ccccc3)NC(c3ccccc3)=N2)cc1,"inconclusive: 29.1 µM [activator, single point]",–
Cc1ccc(/C=C/C(=O)O)cc1S(=O)(=O)NCC1CCCO1 (stereo not drawn),–,inactive: 0.361%
CCc1cc(C(=O)Nc2ccccc2N2CCOCC2)sc1C,–,inactive: -4.92%
COC(=O)c1ccc(C(=O)NC2CCCN(Cc3ccc(Cl)cc3)C2)nc1 (stereo not drawn),–,inconclusive: 29.6% [activator]
COc1ccc(NC(=O)Nc2ccc3c(c2)C(=O)N([C@@H](C)CO)C[C@@H](C)[C@@H](CN(C)S(=O)(=O)c2cn(C)cn2)O3)cc1,–,inactive: 1.25%
O=C(O)/C=C\C(=O)Nc1ccc(N2CCN(c3ccc(F)cc3)CC2)cc1,"inconclusive: 23.1 µM [activator, single point]",–
CCn1c2ccccc2c2cc(NC(=O)c3ccc(=O)oc3)ccc21,"inconclusive: 2.31 µM [activator, full curve, poor fit]",–

SMILES,Potency,re-replication activation
COc1ccccc1C(OC(=O)c1cccs1)C(=O)NCc1ccco1 (stereo not drawn),"inconclusive: 18.4 µM [activator, single point]",–
CC1=NN(c2nc3ccccc3[nH]2)C(=O)C1Cc1ccccc1 (stereo not drawn),active: 2.91 µM,–
COc1ccccc1Nc1c2c(nc3ccccc13)CCC2,active: 14.6 µM,–
CCOC(=O)C1CCCN(C(=O)c2cc(CN3C(=O)c4ccccc4C3=O)ccc2OC)C1 (stereo not drawn),–,inactive: -4.88%
Cc1ccccc1-n1nc2c(c1NC(=O)c1ccc(Br)o1)CSC2,–,inactive: 5.33%
O=c1c(-c2nc3ccccc3s2)cccn1Cc1ccc(Cl)c(Cl)c1,active: 1.16 µM,–
COc1cc(CNC2CCCCCCC2)cc(Cl)c1OC,"inconclusive: 20.6 µM [activator, single point]",–
CN1C=CC(=O)[C@@H](OC(=O)Nc2ccc(Br)cc2)[C@H]1c1ccccc1Br,"inconclusive: 0.82 µM [activator, partial curve, poor fit]",–
CCOCCCNC(=O)CCc1ccc(S(=O)(=O)Nc2ccc(C)cc2)cc1,"inconclusive: 0.366 µM [activator, partial curve, poor fit]",–
NS(=O)(=O)c1ccc(CCNC(=O)Nc2ccc(Cl)cc2)cc1,"inconclusive: 20.6 µM [activator, partial curve, poor fit]",–
COc1ccc(CCNCC(O)COc2ccc(OC)cc2C(C)(C)C)cc1 (stereo not drawn),active: 23.1 µM,–
O=C(NCC(=O)N(Cc1cccs1)C(C(=O)NC1CCCCC1)c1ccncc1)c1ccco1 (stereo not drawn),"inconclusive: 0.651 µM [activator, full curve, poor fit]",–
O=c1cc(-c2ccccc2)[nH]c2nc3ccccc3n12,active: 10.3 µM,–
N#Cc1ccccc1OCC(=O)OCC(=O)NC1CCS(=O)(=O)C1 (stereo not drawn),–,inactive: -4.14%
CC(CSc1nnnn1-c1ccccc1)Cn1c(N2CCCC2)nc2c1c(=O)[nH]c(=O)n2C (stereo not drawn),–,inactive: -48.8%
Cc1cc(C)cc(N(CC(=O)N2CCC(C)CC2)S(=O)(=O)c2ccccc2)c1,"inconclusive: 32.6 µM [activator, partial curve, poor fit]",–
CC(=O)OCCNc1cc(Sc2nc3ccccc3[nH]2)c2nonc2c1[N+](=O)[O-],"inconclusive: 2.06 µM [activator, full curve, poor fit]",–
O=C(C1=C[C@H](c2coc3ccccc3c2=O)C[C@H](OCc2ccc(CO)cc2)O1)N1CCN(Cc2ccccc2)CC1,"inconclusive: 0.517 µM [activator, full curve, poor fit]",–
O=C(O)CCCCCN1C(=O)C2CCCCC2C1=O (stereo not drawn),"inconclusive: 5.8 µM [activator, full curve, poor fit]",–
CCCn1c(=O)c(C(=O)Nc2ccccc2C)c(O)c2ccccc21,–,inactive: -0.432%
COc1ccc(C2C=C(c3ccc(C)c(C)c3)Nc3ncnn32)c(OC)c1OC (stereo not drawn),"inconclusive: 16.4 µM [activator, single point]",–
CCc1nn(CC(=O)NCCCN2CCOCC2)c(=O)c2cc3sccc3n12,–,inactive: -8.52%
Cc1csc(NC(=O)CCn2c(=O)oc3ccc(Cl)cc32)n1,"inconclusive: 23.1 µM [activator, single point]",–

# Copied from the listing (4 entries):
SMILES,Potency,re-replication activation
Cc1cc(C)cc(N(CC(=O)N2CCC(C)CC2)S(=O)(=O)c2ccccc2)c1,"inconclusive: 32.6 µM [activator, partial curve, poor fit]",–
CC(=O)OCCNc1cc(Sc2nc3ccccc3[nH]2)c2nonc2c1[N+](=O)[O-],"inconclusive: 2.06 µM [activator, full curve, poor fit]",–
O=C(C1=C[C@H](c2coc3ccccc3c2=O)C[C@H](OCc2ccc(CO)cc2)O1)N1CCN(Cc2ccccc2)CC1,"inconclusive: 0.517 µM [activator, full curve, poor fit]",–
O=C(O)CCCCCN1C(=O)C2CCCCC2C1=O (stereo not drawn),"inconclusive: 5.8 µM [activator, full curve, poor fit]",–

# (continued)

SMILES,Potency,re-replication activation
COc1ccc(S(=O)(=O)NC(C)C(=O)Nc2ccccc2C(F)(F)F)cc1 (stereo not drawn),–,inactive: -0.854%
Brc1ccccc1-c1nnc2sc(Cc3ccccc3)nn12,–,inactive: 1.49%
CC1(C#N)c2ccccc2C(Br)=CN1C(=O)c1ccccc1 (stereo not drawn),"inconclusive: 3.26 µM [activator, full curve, poor fit]",–
COc1cccc(NC(=O)Nc2cccnc2)c1,"inconclusive: 0.116 µM [activator, full curve, poor fit]",–
C=CCC(=O)N1CCCC(C(=O)c2ccc(Cl)cc2)C1 (stereo not drawn),–,inconclusive: 74.2% [activator]
COc1ccccc1N(CC(O)Cn1ccnc1C)S(=O)(=O)c1ccc(C)cc1 (stereo not drawn),"inconclusive: 20.6 µM [activator, single point]",–
CCOc1ccc(-c2nc(CCl)cs2)cc1,"inconclusive: 16.4 µM [activator, single point]",–
COc1ccc(N=C2NN=C(c3ccc4c(c3)OCCO4)CS2)cc1,–,inactive: 13.3% [at 9.22 µM]
CCOC(=O)c1c(C)[nH]c(C)c1C(=O)COC(=O)Cc1ccc(OC)c(OC)c1,–,inactive: -7.09%
Cc1cc(=O)oc2cc(O)cc(O)c12,"inconclusive: 0.0046 µM [activator, partial curve, poor fit]",–
CC(C)CCN1CCN(C2CSCCSC2)CC1CCO (stereo not drawn),"inconclusive: 0.651 µM [activator, full curve, poor fit]",–
Cc1ccc(NC(=O)N(C2CCCCC2)C(C)c2cccnc2)cc1C (stereo not drawn),–,inactive: -8.83%
CCOC(=O)N1CCN(C(=S)NC(=O)c2ccnn2C)CC1,–,inactive: -2.14%
COc1ccccc1CCNC(=O)C(=O)NCC1OCCN1S(=O)(=O)c1ccccc1 (stereo not drawn),–,inactive: -9.39%
C=C(C)c1cccc(C(C)(C)NC(=O)Nc2ccc(OC)nc2)c1,–,inactive: 22.8%
Cc1noc(-c2ccc(C(F)(F)F)cc2)c1NC(=O)Nc1ccc(Cl)cc1,"inconclusive: 18.4 µM [activator, single point]",–
Cn1c(-n2c(-c3ccco3)nc3ccccc3c2=O)nc2ccccc21,"inconclusive: 29.1 µM [activator, single point]",–
CC(=O)Nc1nonc1-c1nc2ccccc2n1CCC(C)C,"inconclusive: 11.6 µM [activator, partial curve, poor fit]",–
COc1cc2c(cc1OC)N1C(=O)CC(OCC(=O)O)C3C4CC5(CCN5C(=O)C4=O)C2C31 (stereo not drawn),"inconclusive: 25.9 µM [activator, single point]",–
O=C(NCc1ccncc1)c1ccc(N2CCCC2)c([N+](=O)[O-])c1,–,inactive: -2.14%
COc1ccccc1NS(=O)(=O)c1cc(NC(=O)CN2C(=O)NC3(CCCCC3)C2=O)ccc1C,"inconclusive: 3.66 µM [activator, full curve, poor fit]",–
Cc1ccsc1/C=N/NC(=O)c1nnn(-c2nonc2N)c1CSc1ccccc1,"inconclusive: 16.4 µM [activator, partial curve, poor fit]",–
